According to patent US20080255128A1, “PHTHALAZINONE DERIVATIVES” (priority 2007, published 2008):
Some entries share one result that the patent states for a list of compounds.

System: HeLa cells
Experiment: Potentiation Factor (PF50) with methyl methanesulfonate (MMS), SRB cell growth assay
Format: cell-based
Conditions: ratio of IC50 of control cell growth to IC50 of cell growth + PARP inhibitor

In the case of `CC1CCCCN1CCN1C(=O)N(c2cc(Cc3n[nH]c(=O)c4ccccc34)ccc2F)C(=O)[C@@H]1C` (some centres unmarked) [Compound 22], the “mean PF50” value (compound at 1 nM) is reported as “greater than 2” and the “mean PF50” value (compound at 30 nM) is reported as “greater than 2”.
